This note sets out measurements from paper PMC10617981 (2023).

Chains of the proteins cited; added tags and fusions are not shown. Lines headed by an entry give the natural chain unless they say otherwise; changes in a name come on top. A line that says so, or that is headed by a name, gives the form on record, which may keep a tag or linker.
UniProt Q7KZF4: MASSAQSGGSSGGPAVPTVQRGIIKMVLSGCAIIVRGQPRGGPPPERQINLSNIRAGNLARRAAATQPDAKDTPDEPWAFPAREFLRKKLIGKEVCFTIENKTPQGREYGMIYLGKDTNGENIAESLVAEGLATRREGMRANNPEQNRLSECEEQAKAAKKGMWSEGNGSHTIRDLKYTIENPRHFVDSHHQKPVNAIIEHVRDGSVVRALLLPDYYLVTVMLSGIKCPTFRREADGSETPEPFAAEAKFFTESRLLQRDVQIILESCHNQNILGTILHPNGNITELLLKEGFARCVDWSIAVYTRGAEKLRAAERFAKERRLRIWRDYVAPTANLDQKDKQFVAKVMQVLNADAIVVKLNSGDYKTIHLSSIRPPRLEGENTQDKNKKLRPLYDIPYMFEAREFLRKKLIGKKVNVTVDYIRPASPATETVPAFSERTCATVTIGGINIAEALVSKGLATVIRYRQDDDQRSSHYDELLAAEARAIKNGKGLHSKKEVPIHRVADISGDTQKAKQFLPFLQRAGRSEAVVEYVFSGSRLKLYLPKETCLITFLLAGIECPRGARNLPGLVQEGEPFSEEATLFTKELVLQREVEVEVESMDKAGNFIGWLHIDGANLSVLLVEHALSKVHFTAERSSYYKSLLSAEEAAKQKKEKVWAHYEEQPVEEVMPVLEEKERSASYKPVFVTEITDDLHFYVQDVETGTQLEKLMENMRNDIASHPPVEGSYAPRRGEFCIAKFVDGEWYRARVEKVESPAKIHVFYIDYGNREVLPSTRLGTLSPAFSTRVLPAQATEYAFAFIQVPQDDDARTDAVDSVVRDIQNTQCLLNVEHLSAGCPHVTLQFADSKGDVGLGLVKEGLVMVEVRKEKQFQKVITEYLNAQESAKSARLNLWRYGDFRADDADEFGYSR
SND1-FLAG with the SNase 3 domain deleted (SN3: 341-496 removed) (Q7KZF4, form named): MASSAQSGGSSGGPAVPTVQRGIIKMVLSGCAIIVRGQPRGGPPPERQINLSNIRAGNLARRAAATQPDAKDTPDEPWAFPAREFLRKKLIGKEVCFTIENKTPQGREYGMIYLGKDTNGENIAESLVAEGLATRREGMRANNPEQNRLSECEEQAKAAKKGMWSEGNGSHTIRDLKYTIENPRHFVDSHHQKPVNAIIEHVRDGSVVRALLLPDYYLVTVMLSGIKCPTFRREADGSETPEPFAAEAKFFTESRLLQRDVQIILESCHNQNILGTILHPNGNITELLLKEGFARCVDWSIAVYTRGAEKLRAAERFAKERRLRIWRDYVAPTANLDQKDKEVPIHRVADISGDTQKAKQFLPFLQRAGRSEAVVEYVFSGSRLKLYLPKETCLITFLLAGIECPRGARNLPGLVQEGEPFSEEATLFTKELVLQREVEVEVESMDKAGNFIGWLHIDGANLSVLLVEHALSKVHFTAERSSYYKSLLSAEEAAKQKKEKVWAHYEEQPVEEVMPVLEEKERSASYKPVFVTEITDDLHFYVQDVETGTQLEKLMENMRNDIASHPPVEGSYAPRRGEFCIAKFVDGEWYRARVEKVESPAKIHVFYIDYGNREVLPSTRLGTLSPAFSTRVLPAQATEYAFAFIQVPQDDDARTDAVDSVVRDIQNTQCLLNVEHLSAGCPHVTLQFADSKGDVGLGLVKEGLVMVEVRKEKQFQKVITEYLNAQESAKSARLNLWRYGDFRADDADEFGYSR

For test [1], the target named is SND1-FLAG (full-length SND1 with a single C-terminal Flag tag) (human) (UniProt Q7KZF4). In words: co-IP; […]; 50 mM Tris-HCl pH 7.5, 150 mM NaCl, 1% Triton-X 100; […].
The target of test [2] is staphylococcal nuclease domain-containing protein 1 (SND1), endogenous (human (endogenous in A549^ACE2)) (UniProt Q7KZF4). Briefly: proximity ligation.
In another test the target is NSP9-V5 (SARS-CoV-2) (UniProt P0DTD1). Briefly: co-IP.

Results are given in words; binding and its absence hold for the method and conditions named. In cells and extracts the contact can be indirect. Some results given as binding are weak or reduced against the parent protein; the word gives no strength.

Take NSP9-V5 (from UniProt P0DTD1 4141-4253): the binding entry in test [1] was “binds”.
Consider “SARS-CoV-2 NSP9 made during infection (from UniProt P0DTD1 4141-4253)”, for which the binding result in test [2] is “binds”.
Turning to “SND1-FLAG (full-length SND1 with a single C-terminal Flag tag) (from UniProt Q7KZF4 1-910)”, the binding result with NSP9-V5 (SARS-CoV-2) is reported as “binds”.
Same read-out and setting: under “SND1-FLAG with the SNase 3 domain deleted (SN3: 341-496 removed) (from UniProt Q7KZF4 1-910)” stands “no binding”.
